Earlier results as cited in patent US20020016293A1 (priority 2000, published 2002).

Details: cited from earlier work

Compound: COC(=O)C1=C(C)NC(C)=C(C(=O)OC)C1c1ccccc1[N+](=O)[O-] [Nifedipine, 3,5-Pyridinecarboxylic acid, 1,4-dihydro-2,6-dimethyl-4-(2-nitrophenyl)-, dimethyl ester]
- bound to plasma protein (human, in vivo): Greater than 90%
- inactive metabolites excreted in the stool (human, in vivo): 15%
- inactive metabolites excreted in urine (human, in vivo): 80%
- fraction of an oral dose absorbed (oral): About 90%
